These are yes or no findings as the source states them, for the method shown. For some assays here: Binding seen in cells or lysates may run through a third protein. Some binding calls cover weakened binding; strength is not graded here. For some assays here: Tags and fused reporters may be left off the sequences shown. Blank lines part the entries; values can stand above or below the molecule they belong to.
Columns and labels:
[1] = target: T1, 3HA-FBW2 (3x HA epitope at the N-terminus of the F-box protein FBW2) (Arabidopsis thaliana) (UniProt Q9ZPE4); assay: co-IP
T1 sequence: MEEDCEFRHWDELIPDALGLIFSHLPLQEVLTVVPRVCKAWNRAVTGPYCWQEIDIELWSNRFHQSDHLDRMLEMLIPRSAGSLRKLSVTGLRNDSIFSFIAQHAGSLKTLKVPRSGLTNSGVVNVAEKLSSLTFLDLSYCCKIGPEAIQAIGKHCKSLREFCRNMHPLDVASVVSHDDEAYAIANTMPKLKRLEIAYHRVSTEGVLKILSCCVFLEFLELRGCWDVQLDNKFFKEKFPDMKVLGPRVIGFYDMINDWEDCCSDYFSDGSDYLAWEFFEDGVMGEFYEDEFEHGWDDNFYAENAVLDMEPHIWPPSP

Amino acid sequences for entries named in this document (tags omitted).
UniProt Q39255: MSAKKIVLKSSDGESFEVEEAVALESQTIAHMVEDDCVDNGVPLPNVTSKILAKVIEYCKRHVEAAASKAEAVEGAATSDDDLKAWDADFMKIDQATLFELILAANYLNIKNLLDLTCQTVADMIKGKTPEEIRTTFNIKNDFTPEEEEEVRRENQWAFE
UniProt Q94AH6: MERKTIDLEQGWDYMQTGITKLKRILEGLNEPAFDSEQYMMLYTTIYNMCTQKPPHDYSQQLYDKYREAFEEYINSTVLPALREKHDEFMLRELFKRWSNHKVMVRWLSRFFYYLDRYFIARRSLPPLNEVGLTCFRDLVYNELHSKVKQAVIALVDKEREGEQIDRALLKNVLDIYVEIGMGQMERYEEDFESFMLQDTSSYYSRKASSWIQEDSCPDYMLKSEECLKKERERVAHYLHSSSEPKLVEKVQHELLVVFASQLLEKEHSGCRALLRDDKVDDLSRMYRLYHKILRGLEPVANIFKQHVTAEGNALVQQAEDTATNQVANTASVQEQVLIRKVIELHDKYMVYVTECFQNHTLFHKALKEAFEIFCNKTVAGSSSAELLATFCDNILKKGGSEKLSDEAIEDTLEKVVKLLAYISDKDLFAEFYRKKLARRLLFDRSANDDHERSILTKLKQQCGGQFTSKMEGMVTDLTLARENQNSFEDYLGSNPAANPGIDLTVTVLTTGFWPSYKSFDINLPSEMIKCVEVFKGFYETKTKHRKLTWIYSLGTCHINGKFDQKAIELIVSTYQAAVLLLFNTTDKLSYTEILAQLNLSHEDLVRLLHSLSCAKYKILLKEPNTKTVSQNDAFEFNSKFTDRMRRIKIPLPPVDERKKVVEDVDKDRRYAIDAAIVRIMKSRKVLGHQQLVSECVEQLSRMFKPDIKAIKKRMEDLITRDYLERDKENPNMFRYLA

[2] = target: ASK1 (yeast two-hybrid fusion) (Arabidopsis thaliana) (UniProt Q39255); assay: two-hybrid
[3] = target: T2, full-length AGO1 fused to the N- or C-terminal fragment of YFP (BiFC) (Arabidopsis thaliana) (UniProt O04379); assay: split reporter
T2 sequence: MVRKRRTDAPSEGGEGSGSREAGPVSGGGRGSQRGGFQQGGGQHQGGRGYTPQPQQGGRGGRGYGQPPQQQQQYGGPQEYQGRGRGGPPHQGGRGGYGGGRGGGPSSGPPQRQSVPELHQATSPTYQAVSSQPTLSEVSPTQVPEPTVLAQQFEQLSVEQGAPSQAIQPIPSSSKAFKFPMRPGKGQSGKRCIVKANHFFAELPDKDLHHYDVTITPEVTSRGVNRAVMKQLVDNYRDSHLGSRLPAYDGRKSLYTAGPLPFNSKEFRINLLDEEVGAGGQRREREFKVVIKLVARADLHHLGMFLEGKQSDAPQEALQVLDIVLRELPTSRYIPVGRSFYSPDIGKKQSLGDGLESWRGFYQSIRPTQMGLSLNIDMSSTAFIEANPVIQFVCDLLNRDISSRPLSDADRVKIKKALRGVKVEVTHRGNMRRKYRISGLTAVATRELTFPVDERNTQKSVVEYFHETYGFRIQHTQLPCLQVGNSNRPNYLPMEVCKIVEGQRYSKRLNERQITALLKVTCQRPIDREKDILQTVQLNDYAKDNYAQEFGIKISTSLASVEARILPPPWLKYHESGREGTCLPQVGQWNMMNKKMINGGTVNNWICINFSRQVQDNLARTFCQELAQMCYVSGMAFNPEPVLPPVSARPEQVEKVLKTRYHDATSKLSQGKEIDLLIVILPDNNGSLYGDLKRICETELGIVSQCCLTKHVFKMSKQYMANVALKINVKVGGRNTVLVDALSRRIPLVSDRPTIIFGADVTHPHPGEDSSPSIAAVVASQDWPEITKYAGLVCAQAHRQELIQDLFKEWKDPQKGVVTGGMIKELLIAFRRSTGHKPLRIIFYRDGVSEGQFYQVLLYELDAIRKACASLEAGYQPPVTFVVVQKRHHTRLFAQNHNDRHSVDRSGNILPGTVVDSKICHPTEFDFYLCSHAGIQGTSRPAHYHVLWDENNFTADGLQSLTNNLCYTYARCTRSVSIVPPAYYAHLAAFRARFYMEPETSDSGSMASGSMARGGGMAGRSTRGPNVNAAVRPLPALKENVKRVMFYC

binding [1]: binds
Molecule: CULLIN1 (CUL1), endogenous (from UniProt Q94AH6 1-738)

binding [1]: binds
Molecule: ASK1 (Skp1-like protein 1), endogenous (from UniProt Q39255 1-160)

binding [2]: binds
B1: FBW2 (pGADT7-FBW2, yeast two-hybrid) (protein, UniProt Q9ZPE4 1-317)
chain: T1 sequence

binding [3]: no binding
B2: BPM5 fused to the N- or C-terminal fragment of YFP (BiFC) (protein, UniProt Q1EBV6 1-410)
chain: MSESVIQGSNPDRVLSPTSSKSVTQTVNGSHQFVIQGYSLAKGMGIGKHIASDNFSVGGYQWGIFFYPDGKNPEDNSSYVSVFIALASEGTEVRALFELALVDQSGKGKHKVHSHFERSLDGGPYTLKYRGSMWGYKRFFRRSILETSDYLKDDCLIINCTVGVVVSEILCPQLHSVHVPDSELGSHFGVLLDSMEGSDITFNIAGEKFLAHKLVLAARSPFFKSKFFSEFEANNTEVTINDLEPKVFKALLQFMYKDSLPEDVEPATAHTFERLKLSEIYETLIVKVLAAADKYDLIRLRLLCESHICKGVSVKSVAKILALADRYNAKELKGVCLKFTAENLAAVLETDAYQQMKDECVTLQSELLKAVAGHEEGSNSTGGAKSQSVWAQLSDGGGDTTSRHVRQRTT

binding [3]: binds
B3: SDE3 fused to the N- or C-terminal fragment of YFP (BiFC) (protein, UniProt Q8GYD9 1-1002)
chain: MSVSGYKSDDEYSVIADKGEIGFIDYQNDGSSGCYNPFDEGPVVVSVPFPFKKEKPQSVTVGETSFDSFTVKNTMDEPVDLWTKIYASNPEDSFTLSILKPPSKDSDLKERQCFYETFTLEDRMLEPGDTLTIWVSCKPKDIGLHTTVVTVDWGSDRVERVVFLLAEDKISSSLTSNRPYSRSRRAPKKDFAVDDYVKGSRPSKVVERSFRNRLPLYEIPKEIREMIENKEFPDDLNEGLTARNYANYYKTLLIMEELQLEEDMRAYDMENVSMKRRGIYLSLEVPGLAERRPSLVHGDFIFVRHAYDDGTDHAYQGFVHRVEADEVHMKFASEFHQRHTAGSVYNVRFTYNRINTRRLYQAVDAAEMLDPNFLFPSLHSGKRMIKTKPFVPISPALNAEQICSIEMVLGCKGAPPYVIHGPPGTGKTMTLVEAIVQLYTTQRNARVLVCAPSNSAADHILEKLLCLEGVRIKDNEIFRLNAATRSYEEIKPEIIRFCFFDELIFKCPPLKALTRYKLVVSTYMSASLLNAEGVNRGHFTHILLDEAGQASEPENMIAVSNLCLTETVVVLAGDPRQLGPVIYSRDAESLGLGKSYLERLFECDYYCEGDENYVTKLVKNYRCHPEILDLPSKLFYDGELVASKEDTDSVLASLNFLPNKEFPMVFYGIQGCDEREGNNPSWFNRIEISKVIETIKRLTANDCVQEEDIGVITPYRQQVMKIKEVLDRLDMTEVKVGSVEQFQGQEKQVIIISTVRSTIKHNEFDRAYCLGFLSNPRRFNVAITRAISLLVIIGNPHIICKDMNWNKLLWRCVDNNAYQGCGLPEQEEFVEEPFKQEGSSNGPQYPPEAEWNNSGELNNGGANENGEWSDGWNNNGGTKEKNEWSDGWNSNGGGTKKKDEWSDGWDNNGGTNGINQEGSSNAPQDPQEAEWNDSGEVKNGGTKEKDVRSDGWNNNGGKNEKEECCDGWKDGGSGEEIKNGGKFETRGDFVAKEEDEWSDGWK
